For at least one compound, name, drawing or mass did not settle the structure.
Tested on: S. aureus biofilm
Assay: In-vitro S. aureus biofilm model, treatment with oils of various polarity
Assay type: cell-based
Conditions: oils with log P within vs outside 0.5 to 2.0

In the case of OCCc1ccccc1 [Phenyl ethanol], the “antibacterial activity against biofilms (log reduction of bacteria vs. moist control, FIG. 1)” value is reported as “exhibited some antibacterial activity against biofilms”.

Source: US11641856B2 (SMITH & NEPHEW, INC., priority 2015, dated 2023)
